## Primary screen of a compound library

By UniProt entry, the sequences of proteins in these tests, tags left out. Residues count along the entry.
UniProt I6X8D2, whole entry: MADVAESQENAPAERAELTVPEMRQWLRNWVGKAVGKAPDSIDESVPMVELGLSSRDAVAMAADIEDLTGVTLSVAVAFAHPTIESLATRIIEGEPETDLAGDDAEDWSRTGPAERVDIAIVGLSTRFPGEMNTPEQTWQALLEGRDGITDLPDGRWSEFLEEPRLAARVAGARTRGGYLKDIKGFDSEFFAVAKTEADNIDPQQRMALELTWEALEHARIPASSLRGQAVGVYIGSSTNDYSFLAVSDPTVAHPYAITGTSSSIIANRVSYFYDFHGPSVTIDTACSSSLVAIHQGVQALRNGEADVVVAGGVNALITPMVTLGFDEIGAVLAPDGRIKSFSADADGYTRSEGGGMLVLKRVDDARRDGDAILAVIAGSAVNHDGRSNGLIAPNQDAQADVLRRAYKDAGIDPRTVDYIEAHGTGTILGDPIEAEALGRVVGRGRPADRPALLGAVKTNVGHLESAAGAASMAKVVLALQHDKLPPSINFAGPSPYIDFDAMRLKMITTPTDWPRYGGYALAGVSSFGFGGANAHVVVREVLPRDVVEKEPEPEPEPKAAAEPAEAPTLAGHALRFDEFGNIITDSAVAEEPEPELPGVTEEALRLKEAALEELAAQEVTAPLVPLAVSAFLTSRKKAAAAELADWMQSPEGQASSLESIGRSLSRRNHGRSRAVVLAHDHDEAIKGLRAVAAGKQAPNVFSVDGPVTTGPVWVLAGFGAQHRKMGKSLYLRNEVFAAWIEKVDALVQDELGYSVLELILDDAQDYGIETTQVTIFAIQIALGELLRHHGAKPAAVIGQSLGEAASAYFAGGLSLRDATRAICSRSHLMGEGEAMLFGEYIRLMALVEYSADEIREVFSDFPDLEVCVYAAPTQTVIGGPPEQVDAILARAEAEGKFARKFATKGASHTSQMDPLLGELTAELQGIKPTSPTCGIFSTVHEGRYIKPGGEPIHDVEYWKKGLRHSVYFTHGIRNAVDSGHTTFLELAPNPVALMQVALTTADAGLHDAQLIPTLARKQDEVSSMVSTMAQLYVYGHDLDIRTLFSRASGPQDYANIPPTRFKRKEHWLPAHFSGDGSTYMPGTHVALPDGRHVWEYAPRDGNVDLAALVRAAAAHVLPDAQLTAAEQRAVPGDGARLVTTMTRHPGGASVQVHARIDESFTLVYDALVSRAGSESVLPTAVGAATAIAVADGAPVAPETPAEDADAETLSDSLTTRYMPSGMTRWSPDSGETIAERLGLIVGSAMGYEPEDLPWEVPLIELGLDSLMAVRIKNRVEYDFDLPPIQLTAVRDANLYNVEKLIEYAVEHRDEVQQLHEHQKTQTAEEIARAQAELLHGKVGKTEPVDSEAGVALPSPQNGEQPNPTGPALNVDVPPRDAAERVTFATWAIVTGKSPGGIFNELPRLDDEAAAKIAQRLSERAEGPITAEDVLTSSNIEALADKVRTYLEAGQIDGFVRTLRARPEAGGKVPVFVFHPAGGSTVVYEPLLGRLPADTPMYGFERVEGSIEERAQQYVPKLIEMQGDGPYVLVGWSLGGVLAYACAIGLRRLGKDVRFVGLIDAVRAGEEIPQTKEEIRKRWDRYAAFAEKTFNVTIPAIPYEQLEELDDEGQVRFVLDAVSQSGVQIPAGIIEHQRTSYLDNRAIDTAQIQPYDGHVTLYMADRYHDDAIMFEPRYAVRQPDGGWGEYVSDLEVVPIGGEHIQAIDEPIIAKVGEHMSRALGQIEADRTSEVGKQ
UniProt A4I591, 1-473: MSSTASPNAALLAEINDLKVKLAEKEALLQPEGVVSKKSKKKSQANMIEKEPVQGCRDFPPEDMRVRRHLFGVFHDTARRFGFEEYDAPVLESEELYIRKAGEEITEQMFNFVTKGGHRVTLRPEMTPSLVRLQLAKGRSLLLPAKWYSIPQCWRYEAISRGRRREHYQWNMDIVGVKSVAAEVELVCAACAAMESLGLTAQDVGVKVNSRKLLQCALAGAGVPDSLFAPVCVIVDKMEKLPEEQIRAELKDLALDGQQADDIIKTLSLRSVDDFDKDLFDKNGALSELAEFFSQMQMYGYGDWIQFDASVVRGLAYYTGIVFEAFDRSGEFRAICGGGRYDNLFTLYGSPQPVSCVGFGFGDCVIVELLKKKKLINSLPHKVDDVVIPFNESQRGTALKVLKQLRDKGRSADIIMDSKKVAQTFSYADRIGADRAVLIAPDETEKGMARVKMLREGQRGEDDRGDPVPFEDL

Measurements from “University of Dundee, Small-Polar-MMV Screening Library” (2021), ChEMBL document CHEMBL3988442.

Each number is a percent effect as filed.
The controls that fix the scale are not given in the record; negative values are as filed.
The compounds are a random part of those screened.
A dash means the value is not listed here; it may have been measured.

Pks13 thioesterase: 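Enzyme assay of the thioesterase domain of polyketide synthase 13; the read-out is not stated. Target: Polyketide synthase Pks13, Mycobacterium tuberculosis (UniProt I6X8D2). Tested at 30 µM. Higher reads as stronger inhibition (inferred from which compounds were picked for retests). Of about 67,000 compounds tested this way, about 300 (0.46%) reached 50% or more in at least one test.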
LiHisRS: 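Enzyme assay of histidyl-tRNA synthetase; the read-out is not stated. Target: Histidine-tRNA ligase, Leishmania infantum (UniProt A4I591). Compounds at 30 µM. The record gives no direction; compounds that gave an IC50 in retests scored well above the rest, so higher reads as stronger inhibition. The assay is labelled LdHisRS but filed under L. infantum. Of about 69,000 compounds tested this way, about 410 (0.6%) reached 50% or more in at least one test.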

Compound	Pks13 thioesterase	LiHisRS
c1ccc(CCN2CCOC(CNc3cccnn3)C2)nc1 (stereo not shown)	-7.139%	3.846%
Cc1ccc(C(=O)N2CCC(n3cc(CN)nn3)CC2)cc1F	-25.12%	29.58%
O=C1C[C@H]2[C@@H](CCN2Cc2ccccn2)N1CCN1CCOCC1	-9.024%	21.15%
CCn1[nH]c(C)c2c(C(F)(F)C(F)(F)F)cc(=O)nc1-2	-8.31%	8.824%
COc1cccc(-n2cc(-c3ccnc(N[C@@H](CO)C(C)C)n3)cn2)c1	-56.91%	5%
Cc1ncnc2c1CCN(C(=O)c1ccnnc1)CC2	-20.41%	5.405%
CC[C@@H]1N(Cc2ccc(F)cc2)CCC[C@]12CCC(=O)N2CCOC	-34.77%	19.44%
O=C([C@@H]1Cc2[nH]cnc2CN1CC1CC1)N1CCCC1	23.48%	-8.333%
NCC(c1ccccc1)N1CCc2sccc2C1 (stereo not shown)	-43.3%	34.29%
c1cc(CN2CCC(CCn3cccn3)CC2)cc(Cn2cccn2)c1	-4.903%	16.8%
c1cc(CNCC2CNc3ccnn3C2)cc(OC2CCCC2)n1 (stereo not shown)	-9.596%	21.05%
NC(=O)CCN(C(=O)c1cccc2c1OCO2)c1ccccc1	-32.91%	11.97%
CCS(=O)(=O)N1CCC(c2nnc(CN3CCCCC3)n2C)CC1	-14.51%	9.091%
Cc1cccc(-c2nnn3c2COC(CNS(=O)(=O)C2CC2)C3)c1 (stereo not shown)	17.14%	20%
O=C1NCC2=C1C(c1ccc(O)cc1)Nc1ccccc1N2 (stereo not shown)	4.01%	4.918%
CC(N)Cc1ccccc1Sc1ccccc1 (stereo not shown)	-2.557%	21.84%
O=C(c1ccc[nH]1)N1CCCn2cnc(COCC3CC3)c2C1	-3.108%	3%
O=C(COC1CCCCC1)Nc1ccn(Cc2ccccn2)n1	-13.51%	27.4%
COc1cccc(COCC(O)CN(C)c2ccc(C)cc2C)c1 (stereo not shown)	-41.55%	6.897%
Cn1cccc1C(=O)N1C[C@@H]2C[C@@H](c3nnc(C4CC4)o3)O[C@@H]2C1	-9.72%	8.182%
CC(C)CN1CCCn2nc(CNC(=O)Cc3cccc(O)c3)cc2C1	-39.81%	12.28%
OC1(CNc2ccc(Br)cn2)CCC1	1.643%	-2.618%
CCN1Cc2cc(F)ccc2N(C(=O)C2CCC2)CCC1=O	-4.113%	14.29%
CN(C)c1ccnc(-c2ccnc3c2ccn3C)n1	26.43%	9.6%
CCCNC(=O)c1cc2c([nH]c1=O)CC(c1cccs1)CC2=O (stereo not shown)	-25.08%	13.59%
CS(=O)(=O)CCN1CC(c2ccccc2)(c2ccccc2)CCC1=O	-0.669%	32.39%
CCc1ccc(S(=O)(=O)N2Cc3c(CN(C)C)nn(C)c3C2)cc1	-10.16%	13.86%
COCCNC(C)c1ccc(-c2cccnc2)cc1 (stereo not shown)	7.633%	17.46%
Cc1nn(C)c(N(C)C)c1CNCCCN(C)S(C)(=O)=O	-3.101%	10.64%
Cc1cc(CN2CC[C@H]3[C@H]2CCN3S(C)(=O)=O)oc1C	-21.17%	19.42%
CCCN1CCN(Cc2cn(CCC(N)=O)c3ccccc23)CC1	-	5.128%
CCc1nc(C)c([C@H]2CN(C)C[C@@H]2C(=O)Nc2cccc3cn[nH]c23)[nH]1	-17.08%	-54.55%
CCc1ccc(S(=O)(=O)Nc2ccc(F)cc2C(=O)O)s1	-29.47%	-11.01%
CN(C)C1CC2(CCN(C(=O)C3(C#N)CC3)CC2)c2ccccc21 (stereo not shown)	-22.94%	14%
CC(C)NC(=O)C(C)S(=O)(=O)c1cc2c(cc1Cl)OCCO2 (stereo not shown)	-	18.42%
Cc1ccc(C(=O)NC2CCN(Cc3nc(C(C)C)no3)CC2)s1	-2.305%	12.94%
COc1cccc2ccc(CN3CCN(c4cccnc4)CC3)nc12	-17.39%	33.33%
Cc1cc(C)n(C2CCCN(C(=O)CCc3nccs3)C2)n1 (stereo not shown)	-13.67%	14.29%
Cc1nn(C)c(N2CCOCC2)c1CNCc1ccc(Cl)s1	-13.77%	13.33%
CC(C)(C)NC(=O)CN1CCCN(c2ccc(C#N)cn2)CC1	-22.04%	28.12%
CNC(=O)Cc1ccc(-n2ccnc2-c2ccc(C(=O)O)s2)cc1	-16.1%	36.07%
CCC1=NN2C(=N)/C(=C\c3cccn3-c3ccc(Br)cc3)C(=O)N=C2S1	-18.73%	10.96%
N#Cc1ccc(C2CC(=O)Nc3c2cnn3C2CCCC2)cc1 (stereo not shown)	19.43%	14.56%
CN(C)C(=O)COc1ccccc1CN1CCOC2(CCCC2)C1	-33.48%	12.07%
Cc1csc(N2CCN(CC(=O)Nc3cccnc3)CC2C)n1 (stereo not shown)	4.013%	-1.786%
CN1CC[C@H]2[C@H](C[C@@H](Cn3cncn3)N2c2nccs2)C1	-	15.38%
N#Cc1ccc(N2CCCC2Cn2cncn2)nc1 (stereo not shown)	-30.66%	21.88%
CCCNC(=O)C1CCN(Cc2csc(CC)n2)CC1	4.638%	13.56%
CC(NC(=O)CCCOc1ccc(F)cc1)c1nnc2n1CCC2 (stereo not shown)	4.114%	13.16%
Cc1cnccc1N1CCCN(C(=O)CCCn2ccnc2C)CC1	-40.6%	12.9%
CN1CCN(c2ccc(F)cc2C(N)=O)CC1	-4.114%	2.174%
O=C(Cc1ccon1)N1CCN(c2ccc(F)cc2Cl)CC1	-9.924%	13.51%
O=C(Cc1cccs1)N1CCc2nnc(COc3cncnc3)n2CC1	8.504%	28.21%
Cc1nc2c(c(NCC(O)C(F)(F)F)n1)CCNCC2 (stereo not shown)	-6.039%	-7.042%
CN(C)S(=O)(=O)N1CCC2(COCc3cnc(-c4cccnc4)nc32)C1 (stereo not shown)	-	8.182%
CCC(=O)N(CC(N)=O)Cc1cccc(Oc2ccccc2)c1	-25.18%	27.63%
CN(C)C(=O)COC[C@]12COC[C@H]1CN(CCc1ccccc1)C2	-6.032%	11.11%
Cc1nc(C)n(CC(C)C(=O)N2CCC(CN3CCOCC3)CC2)n1 (stereo not shown)	-2.862%	8.197%
CCS(=O)(=O)N1CCN(C(C)c2ncc(-c3ccccc3)o2)CC1 (stereo not shown)	-8.847%	20.48%
CS(=O)(=O)N1C[C@@H](NC(=O)c2ccno2)[C@@H]2OCCC[C@@H]21	-6.86%	-4.545%
Cc1nn(CCO)c(C)c1-c1cc(C(C)(C)C)nc(N)c1C#N	-43.48%	16.46%
COc1cccc(CN2CCN3C(=O)NC[C@H]3C2)n1	-32.24%	13.89%

Some entries from above, unchanged:

Compound	Pks13 thioesterase	LiHisRS
O=C1C[C@H]2[C@@H](CCN2Cc2ccccn2)N1CCN1CCOCC1	-9.024%	21.15%
COc1cccc2ccc(CN3CCN(c4cccnc4)CC3)nc12	-17.39%	33.33%
Cc1cc(C)n(C2CCCN(C(=O)CCc3nccs3)C2)n1 (stereo not shown)	-13.67%	14.29%
Cc1cnccc1N1CCCN(C(=O)CCCn2ccnc2C)CC1	-40.6%	12.9%
Cc1cccc(-c2nnn3c2COC(CNS(=O)(=O)C2CC2)C3)c1 (stereo not shown)	17.14%	20%
CN(C)c1ccnc(-c2ccnc3c2ccn3C)n1	26.43%	9.6%